PubChem BioAssay AID1159578 | Peter MacCallum Cancer Centre, 2015
The whole screen tested about 18,000 reagents; shown is a part drawn at random. Of all reagents, about 1,030 (5.7%) are marked active. 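Inactive calls also include pools with fewer than 3300 nuclei, whose migration was not assessed.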 The raw values are shown without normalisation. Further read-outs or replicates are left out here.

Purpose: 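Genome-wide hunt for genes controlling movement of lymphatic endothelial cells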 (primary screen)
Cells: human lymphatic endothelial cells
Reagents: siRNA pool against human genes, 40 nM
Duration: 48 h after transfection
Measured: 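Cells stained with dye and imaged after a scratch; covered wound area and nuclei counted, duplicates averaged, migration set against mock wells and turned into a robust z-score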
Reading the numbers: migration robust z-score: higher = faster migration into the scratch; nuclei per well: higher = more cells in the well
Hit rule: 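Pools averaging fewer than 3300 nuclei are never called; remaining pools count as changed when migration robust z lies outside -2 to 2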
Meaning of the calls: active = migration changed; inactive = no migration change, or too few cells

Against XCL2 (X-C motif chemokine ligand 2), the entry reads migration robust z-score 0.86; migration class with cell-count check migration z between -2 and 2; enough cells; nuclei per well, duplicate mean 5060; inactive. Against AKR1E2 (aldo-keto reductase family 1 member E2), the entry reads migration robust z-score 0.44; migration class with cell-count check migration z between -2 and 2; enough cells; nuclei per well, duplicate mean 4886; inactive. For IL17RC (interleukin 17 receptor C) the deposit lists migration robust z-score 1.46; migration class with cell-count check migration z between -2 and 2; enough cells; nuclei per well, duplicate mean 6384; inactive. IRX4 (iroquois homeobox 4) scored migration robust z-score 0.83; migration class with cell-count check migration z between -2 and 2; enough cells; nuclei per well, duplicate mean 7492; inactive. For PLCB3 (phospholipase C beta 3), the entry reads migration robust z-score -0.12; migration class with cell-count check migration z between -2 and 2; enough cells; nuclei per well, duplicate mean 6396; inactive. After knock-down of SUMF2 (sulfatase modifying factor 2), the screen gave migration robust z-score 1.6; migration class with cell-count check migration z between -2 and 2; enough cells; nuclei per well, duplicate mean 5863; inactive.

A few values from above:
Value of IL17RC (interleukin 17 receptor C) under “migration class with cell-count check”: migration z between -2 and 2; enough cells
IRX4 (iroquois homeobox 4), outcome = inactive

More entries:
CRIPT (CXXC repeat containing interactor of PDZ3 domain) scored migration robust z-score -3.16; migration class with cell-count check migration z below -2; enough cells; nuclei per well, duplicate mean 4967; active. After knock-down of RAMP2 (receptor activity modifying protein 2) the results were migration robust z-score 0.83; migration class with cell-count check migration z between -2 and 2; enough cells; nuclei per well, duplicate mean 5202; inactive. OSBPL11 (oxysterol binding protein like 11) scored migration robust z-score -0.75; migration class with cell-count check migration z between -2 and 2; enough cells; nuclei per well, duplicate mean 6056; inactive. Depletion of FBRS (fibrosin) resulted in: migration robust z-score -1.49; migration class with cell-count check migration z between -2 and 2; enough cells; nuclei per well, duplicate mean 6127; inactive. With knock-down of RARRES2 (retinoic acid receptor responder 2) the results were migration robust z-score 1.94; migration class with cell-count check migration z between -2 and 2; enough cells; nuclei per well, duplicate mean 5980; inactive. For SYT6 (synaptotagmin 6), the entry reads migration robust z-score 0.16; migration class with cell-count check migration z between -2 and 2; enough cells; nuclei per well, duplicate mean 5796; inactive.
